Measured values from the supplement of paper PMC10849652.
This is one part of the list.

Protein sequences, listed by entry. Tags and fused reporters are not part of them. Lines headed by an entry give the natural chain unless they say otherwise; changes in a name come on top.
UniProt Q969V6: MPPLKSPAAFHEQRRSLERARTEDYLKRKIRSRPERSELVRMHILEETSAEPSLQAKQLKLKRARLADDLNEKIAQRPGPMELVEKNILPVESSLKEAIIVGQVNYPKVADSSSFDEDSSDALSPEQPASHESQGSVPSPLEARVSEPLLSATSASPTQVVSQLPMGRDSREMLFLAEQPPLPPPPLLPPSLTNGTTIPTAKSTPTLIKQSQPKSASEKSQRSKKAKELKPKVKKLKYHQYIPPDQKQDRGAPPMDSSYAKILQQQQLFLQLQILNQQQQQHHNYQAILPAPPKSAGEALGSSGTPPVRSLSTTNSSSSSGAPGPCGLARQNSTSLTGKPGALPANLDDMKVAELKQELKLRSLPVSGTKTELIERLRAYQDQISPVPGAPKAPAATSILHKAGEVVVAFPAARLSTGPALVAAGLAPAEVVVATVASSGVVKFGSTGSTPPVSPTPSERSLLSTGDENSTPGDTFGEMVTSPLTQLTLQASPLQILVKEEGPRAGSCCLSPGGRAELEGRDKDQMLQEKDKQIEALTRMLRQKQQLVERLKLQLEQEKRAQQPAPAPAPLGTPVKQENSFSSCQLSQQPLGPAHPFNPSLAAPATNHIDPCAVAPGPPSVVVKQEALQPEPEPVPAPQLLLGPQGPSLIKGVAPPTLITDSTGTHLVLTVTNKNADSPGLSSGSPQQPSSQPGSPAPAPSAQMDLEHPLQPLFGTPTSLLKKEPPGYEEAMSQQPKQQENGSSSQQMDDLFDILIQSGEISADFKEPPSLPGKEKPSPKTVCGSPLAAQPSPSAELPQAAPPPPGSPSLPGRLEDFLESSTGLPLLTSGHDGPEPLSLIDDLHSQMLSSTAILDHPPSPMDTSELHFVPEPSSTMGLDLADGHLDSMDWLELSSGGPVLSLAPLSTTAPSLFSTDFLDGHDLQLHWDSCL
UniProt P42898: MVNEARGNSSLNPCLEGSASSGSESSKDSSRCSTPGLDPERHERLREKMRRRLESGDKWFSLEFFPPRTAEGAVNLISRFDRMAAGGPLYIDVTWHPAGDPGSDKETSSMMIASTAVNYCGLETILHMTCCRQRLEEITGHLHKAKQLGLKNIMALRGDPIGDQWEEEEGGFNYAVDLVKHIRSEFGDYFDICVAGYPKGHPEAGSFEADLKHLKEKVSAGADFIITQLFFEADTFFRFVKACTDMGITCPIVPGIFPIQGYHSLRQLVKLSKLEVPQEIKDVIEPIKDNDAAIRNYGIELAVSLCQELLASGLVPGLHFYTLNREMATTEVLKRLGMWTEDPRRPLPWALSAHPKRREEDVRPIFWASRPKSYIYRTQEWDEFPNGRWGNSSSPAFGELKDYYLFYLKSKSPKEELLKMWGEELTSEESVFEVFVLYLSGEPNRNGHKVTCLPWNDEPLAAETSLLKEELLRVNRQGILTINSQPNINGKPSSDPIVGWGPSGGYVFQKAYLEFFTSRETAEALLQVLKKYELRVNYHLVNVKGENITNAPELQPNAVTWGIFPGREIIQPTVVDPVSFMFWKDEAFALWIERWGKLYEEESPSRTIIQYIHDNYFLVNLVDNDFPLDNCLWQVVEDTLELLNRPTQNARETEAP
UniProt Q9BUK6: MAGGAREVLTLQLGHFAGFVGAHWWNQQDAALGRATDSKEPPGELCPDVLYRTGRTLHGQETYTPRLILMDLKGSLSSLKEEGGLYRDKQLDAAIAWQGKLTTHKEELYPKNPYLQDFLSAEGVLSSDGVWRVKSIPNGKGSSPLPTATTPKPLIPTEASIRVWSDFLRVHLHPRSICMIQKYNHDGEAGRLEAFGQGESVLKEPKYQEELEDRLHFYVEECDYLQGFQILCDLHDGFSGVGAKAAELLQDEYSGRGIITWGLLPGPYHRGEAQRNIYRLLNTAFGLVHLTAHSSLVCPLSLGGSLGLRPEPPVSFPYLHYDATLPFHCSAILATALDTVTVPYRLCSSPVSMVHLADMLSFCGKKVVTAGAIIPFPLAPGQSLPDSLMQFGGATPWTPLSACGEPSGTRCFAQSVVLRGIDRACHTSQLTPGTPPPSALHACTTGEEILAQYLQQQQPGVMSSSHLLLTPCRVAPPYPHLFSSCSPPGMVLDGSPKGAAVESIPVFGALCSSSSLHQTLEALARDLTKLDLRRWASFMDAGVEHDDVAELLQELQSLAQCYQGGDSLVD
UniProt Q9UDX5: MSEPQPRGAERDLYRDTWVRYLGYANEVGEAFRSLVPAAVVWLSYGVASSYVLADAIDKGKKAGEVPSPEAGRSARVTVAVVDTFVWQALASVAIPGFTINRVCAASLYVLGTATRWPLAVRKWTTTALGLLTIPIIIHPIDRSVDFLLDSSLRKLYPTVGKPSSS
UniProt P26038, whole entry, looked up: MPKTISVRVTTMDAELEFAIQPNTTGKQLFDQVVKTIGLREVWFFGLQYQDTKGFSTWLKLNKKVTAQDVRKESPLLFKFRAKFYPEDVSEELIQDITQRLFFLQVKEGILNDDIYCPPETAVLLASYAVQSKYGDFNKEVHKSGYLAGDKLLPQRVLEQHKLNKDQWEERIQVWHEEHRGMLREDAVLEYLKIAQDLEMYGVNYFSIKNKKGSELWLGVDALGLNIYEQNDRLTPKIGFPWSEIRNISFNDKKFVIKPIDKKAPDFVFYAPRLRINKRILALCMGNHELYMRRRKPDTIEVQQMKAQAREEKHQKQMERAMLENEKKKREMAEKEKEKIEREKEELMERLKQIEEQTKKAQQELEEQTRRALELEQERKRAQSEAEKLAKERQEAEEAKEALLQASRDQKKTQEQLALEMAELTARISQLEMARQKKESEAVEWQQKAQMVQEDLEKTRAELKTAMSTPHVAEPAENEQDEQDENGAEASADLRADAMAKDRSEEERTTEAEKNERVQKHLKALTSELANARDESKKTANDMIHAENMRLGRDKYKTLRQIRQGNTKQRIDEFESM
UniProt Q9UGC7: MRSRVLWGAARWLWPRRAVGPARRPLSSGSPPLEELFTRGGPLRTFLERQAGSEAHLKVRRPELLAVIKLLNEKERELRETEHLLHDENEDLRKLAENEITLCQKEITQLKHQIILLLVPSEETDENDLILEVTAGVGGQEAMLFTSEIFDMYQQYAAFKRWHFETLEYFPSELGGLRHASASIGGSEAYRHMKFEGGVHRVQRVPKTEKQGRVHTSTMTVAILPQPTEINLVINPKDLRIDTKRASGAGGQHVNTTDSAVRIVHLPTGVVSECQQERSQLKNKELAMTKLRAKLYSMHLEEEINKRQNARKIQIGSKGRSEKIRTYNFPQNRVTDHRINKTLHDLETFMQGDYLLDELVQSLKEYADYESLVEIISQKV
UniProt P82909: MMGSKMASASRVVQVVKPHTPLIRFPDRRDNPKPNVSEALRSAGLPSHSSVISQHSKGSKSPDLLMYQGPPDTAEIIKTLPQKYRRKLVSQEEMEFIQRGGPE
UniProt Q13496: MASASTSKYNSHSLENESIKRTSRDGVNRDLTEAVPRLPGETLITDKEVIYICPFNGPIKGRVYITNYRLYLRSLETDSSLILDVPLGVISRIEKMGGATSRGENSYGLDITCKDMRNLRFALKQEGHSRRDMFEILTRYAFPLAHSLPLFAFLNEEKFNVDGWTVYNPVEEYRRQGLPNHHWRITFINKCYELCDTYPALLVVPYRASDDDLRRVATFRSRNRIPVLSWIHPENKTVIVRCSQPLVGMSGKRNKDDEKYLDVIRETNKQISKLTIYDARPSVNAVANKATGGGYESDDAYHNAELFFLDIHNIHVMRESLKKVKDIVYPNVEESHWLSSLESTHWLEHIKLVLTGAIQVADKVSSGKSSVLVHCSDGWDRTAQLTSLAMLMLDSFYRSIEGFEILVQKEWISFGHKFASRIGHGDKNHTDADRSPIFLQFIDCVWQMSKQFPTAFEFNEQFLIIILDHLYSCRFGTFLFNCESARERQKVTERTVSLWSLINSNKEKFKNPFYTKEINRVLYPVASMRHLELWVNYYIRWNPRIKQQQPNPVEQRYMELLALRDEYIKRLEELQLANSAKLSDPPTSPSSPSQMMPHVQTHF
UniProt P52701: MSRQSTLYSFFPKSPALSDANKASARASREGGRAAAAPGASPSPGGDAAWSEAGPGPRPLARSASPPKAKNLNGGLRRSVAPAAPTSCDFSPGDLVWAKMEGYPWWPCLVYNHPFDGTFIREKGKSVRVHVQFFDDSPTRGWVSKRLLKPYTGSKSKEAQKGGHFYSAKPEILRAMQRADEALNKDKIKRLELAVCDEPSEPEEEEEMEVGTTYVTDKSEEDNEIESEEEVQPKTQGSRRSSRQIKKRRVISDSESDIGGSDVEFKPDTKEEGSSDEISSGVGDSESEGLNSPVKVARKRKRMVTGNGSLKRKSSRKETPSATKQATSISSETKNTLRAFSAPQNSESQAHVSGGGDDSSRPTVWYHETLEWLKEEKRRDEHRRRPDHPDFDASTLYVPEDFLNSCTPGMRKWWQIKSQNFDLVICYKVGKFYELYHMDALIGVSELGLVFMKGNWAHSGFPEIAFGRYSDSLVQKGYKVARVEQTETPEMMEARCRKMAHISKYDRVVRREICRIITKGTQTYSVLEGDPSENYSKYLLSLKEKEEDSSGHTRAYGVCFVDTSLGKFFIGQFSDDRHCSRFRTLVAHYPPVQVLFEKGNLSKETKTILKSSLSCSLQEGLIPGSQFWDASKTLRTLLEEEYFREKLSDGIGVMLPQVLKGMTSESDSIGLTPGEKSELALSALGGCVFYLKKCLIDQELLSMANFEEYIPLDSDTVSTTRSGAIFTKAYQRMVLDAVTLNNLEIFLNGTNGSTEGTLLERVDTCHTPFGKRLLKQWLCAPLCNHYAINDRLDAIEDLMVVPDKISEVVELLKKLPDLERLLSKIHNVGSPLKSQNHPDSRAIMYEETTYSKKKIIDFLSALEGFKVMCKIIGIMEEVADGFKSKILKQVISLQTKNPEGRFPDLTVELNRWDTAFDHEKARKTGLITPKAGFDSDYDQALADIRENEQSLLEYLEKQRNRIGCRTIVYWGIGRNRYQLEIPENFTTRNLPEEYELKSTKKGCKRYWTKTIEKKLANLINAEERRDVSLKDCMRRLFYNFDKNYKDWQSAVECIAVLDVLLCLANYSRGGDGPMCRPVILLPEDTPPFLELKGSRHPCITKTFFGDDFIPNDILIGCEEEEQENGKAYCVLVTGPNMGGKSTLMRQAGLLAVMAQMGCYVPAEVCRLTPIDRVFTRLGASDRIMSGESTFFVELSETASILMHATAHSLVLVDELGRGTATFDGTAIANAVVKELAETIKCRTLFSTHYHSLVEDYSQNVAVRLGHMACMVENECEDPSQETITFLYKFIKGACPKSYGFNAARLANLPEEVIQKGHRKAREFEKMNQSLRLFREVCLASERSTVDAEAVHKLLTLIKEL
UniProt P03905, whole entry, looked up: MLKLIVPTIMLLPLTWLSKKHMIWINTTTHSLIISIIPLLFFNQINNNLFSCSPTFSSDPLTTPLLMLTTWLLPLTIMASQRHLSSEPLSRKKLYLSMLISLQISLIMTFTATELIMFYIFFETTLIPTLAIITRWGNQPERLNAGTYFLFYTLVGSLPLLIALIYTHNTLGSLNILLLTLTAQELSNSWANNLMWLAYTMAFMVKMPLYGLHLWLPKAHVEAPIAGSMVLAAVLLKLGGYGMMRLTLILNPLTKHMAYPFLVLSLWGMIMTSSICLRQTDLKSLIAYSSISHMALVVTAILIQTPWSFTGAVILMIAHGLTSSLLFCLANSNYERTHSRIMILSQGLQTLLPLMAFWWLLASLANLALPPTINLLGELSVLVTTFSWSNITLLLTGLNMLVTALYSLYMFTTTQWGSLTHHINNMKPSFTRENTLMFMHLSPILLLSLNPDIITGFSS
UniProt Q96QG7: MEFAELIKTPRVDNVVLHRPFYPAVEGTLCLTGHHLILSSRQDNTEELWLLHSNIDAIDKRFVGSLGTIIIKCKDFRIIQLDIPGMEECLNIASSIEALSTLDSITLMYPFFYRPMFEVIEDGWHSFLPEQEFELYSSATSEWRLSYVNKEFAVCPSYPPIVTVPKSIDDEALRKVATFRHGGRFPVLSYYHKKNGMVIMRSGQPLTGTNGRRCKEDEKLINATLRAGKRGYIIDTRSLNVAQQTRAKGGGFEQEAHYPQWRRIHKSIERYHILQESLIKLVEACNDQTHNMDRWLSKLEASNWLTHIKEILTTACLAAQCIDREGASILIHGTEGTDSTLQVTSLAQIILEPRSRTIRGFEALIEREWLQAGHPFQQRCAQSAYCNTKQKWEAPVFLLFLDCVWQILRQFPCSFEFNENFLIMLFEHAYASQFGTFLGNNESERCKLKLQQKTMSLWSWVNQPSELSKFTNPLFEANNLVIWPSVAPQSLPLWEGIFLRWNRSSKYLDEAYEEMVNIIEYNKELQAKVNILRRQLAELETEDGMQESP

Experiments:
Experiment in all cases: log2 fold change, soluble protein after heating vs DMSO (PISA); higher = thermal stabilisation; K562 lysate, 10 uM; active = over 0.2 and 3.5 SD of the protein, either way, in both replicates (recomputed)
[1] = compound: C1=CC=C(C=C1)[C@H](COC2=CC3=C(C=C2)NC(=O)N3)NC(=O)C4=CC=CN(C4=O)CC5=CC(=C(C=C5)F)F
Method in brief: (§1)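 Soluble protein was defined as the supernatant remaining after 21,000xg for 90 min, following pooling of heated aliquots and adjustment to 0.5% NP-40 at 4°C. Before that, crude K562 extract at 1 mg/mL protein in PBS pH 7.4 with 1 mM MgCl2 was treated with 10 μM compound for 30 min and heated for 3 min across 48°C-58°C. Quantification used TMTpro 16plex LC-MS/MS with channel sums equalised, and values are log-two fold changes in thermal stability relative to solvent controls from duplicates.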

[2] = compound: CC1=C(SC2=C1C(=N[C@H](C3=NN=C(N32)C)CC(=O)N)C4=CC=C(C=C4)Cl)C
Method in brief: as §1

[3] = compound: CC1=C2C(=CC=C1)N=C(N(C2=O)C3=CC=CC=C3C)CN4C=NC5=C(N=CN=C54)N
Method in brief: as §1

[4] = compound: Cc1sc2c(c1C)C(c1ccc(Cl)cc1)=N[C@@H](CC(=O)OC(C)(C)C)c1nnc(C)n1-2
Method in brief: as §1

[5] = compound: c1ccc([C@@H]2C[C@H]2NC2CCNCC2)cc1
Method in brief: as §1

Measured: log2 fold change

MRTFA (UniProt Q969V6)
inactive: [1] 0.128 | [2] -0.183 | [3] 0.215 | [4] 0.1 | [5] 0.014

MRPS23 (UniProt Q9Y3D9)
inactive: [1] -0.021 | [2] 0 | [3] 0.026 | [4] 0.037 | [5] 0.198

MRPL42 (UniProt Q9Y6G3)
inactive: [1] 0.007 | [2] -0.011 | [3] -0.081 | [4] 0.028 | [5] -0.036

MTHFR isoform 2 (UniProt P42898)
inactive: [1] -0.004 | [2] 0.01 | [3] 0.003 | [4] -0.028 | [5] 0.014

MRPS6 (UniProt P82932)
inactive: [1] -0.016 | [2] 0.049 | [3] 0.041 | [4] -0.065 | [5] 0.018

Four consecutive records out of the list so far, for reference:
MRTFA (UniProt Q969V6)
inactive: [1] 0.128 | [2] -0.183 | [3] 0.215 | [4] 0.1 | [5] 0.014

MRPS23 (UniProt Q9Y3D9)
inactive: [1] -0.021 | [2] 0 | [3] 0.026 | [4] 0.037 | [5] 0.198

MRPL42 (UniProt Q9Y6G3)
inactive: [1] 0.007 | [2] -0.011 | [3] -0.081 | [4] 0.028 | [5] -0.036

MTHFR isoform 2 (UniProt P42898)
inactive: [1] -0.004 | [2] 0.01 | [3] 0.003 | [4] -0.028 | [5] 0.014

The listing continues.

MSTO1 (UniProt Q9BUK6)
inactive: [1] -0.041 | [2] 0.01 | [3] 0.01 | [4] -0.068 | [5] 0.056

MRPS26 (UniProt Q9BYN8)
inactive: [1] 0.028 | [2] -0.026 | [3] 0.005 | [4] 0.016 | [5] 0.038

MRPL39 isoform 2 (UniProt Q9NYK5)
inactive: [1] 0.02 | [2] 0.055 | [3] 0.011 | [4] 0.019 | [5] 0.078

MRPS31 (UniProt Q92665)
inactive: [1] -0.019 | [2] -0.048 | [3] 0.046 | [4] 0.014 | [5] 0.014

MTFP1 (UniProt Q9UDX5)
inactive: [1] 0.005 | [2] -0.058 | [3] 0.03 | [4] 0.079 | [5] -0.222

MRPL54 (UniProt Q6P161)
inactive: [1] -0.031 | [2] 0.027 | [3] -0.04 | [4] -0.075 | [5] 0.061

MRPL4 (UniProt Q9BYD3)
inactive: [1] 0.027 | [2] 0.026 | [3] 0.019 | [4] 0.006 | [5] 0.082

MTDH (UniProt E5RJU9)
inactive: [1] 0.232 | [2] -0.001 | [3] -0.062 | [4] 0.053 | [5] -0.096

MSN (UniProt P26038)
inactive: [1] 0.003 | [2] -0.005 | [3] 0.01 | [4] -0.005 | [5] 0.008

MTRF1L (UniProt Q9UGC7)
inactive: [1] -0.024 | [2] -0.022 | [3] -0.155 | [4] -0.02 | [5] -0.075

MRPL48 (UniProt Q96GC5)
inactive: [1] -0.049 | [2] 0.065 | [3] -0.043 | [4] 0.016 | [5] 0.063

MRPS36 (UniProt P82909)
inactive: [1] 0.091 | [2] -0.033 | [3] -0.071 | [4] 0.234 | [5] -0.076

MTM1 (UniProt Q13496)
inactive: [1] 0.006 | [2] -0.028 | [3] 0.034 | [4] -0.009 | [5] 0.011

MSH6 (UniProt P52701)
inactive: [1] -0.021 | [2] 0.01 | [3] 0.034 | [4] 0.006 | [5] 0.014

MT-ND4 (UniProt P03905)
inactive: [1] -0.116 | [2] -0.042 | [3] 0.021 | [4] -0.086 | [5] -0.063

MTMR9 (UniProt Q96QG7)
inactive: [1] 0.073 | [2] -0.101 | [3] 0.06 | [4] 0.028 | [5] 0.053

MRPL41 (UniProt Q8IXM3)
inactive: [1] -0.03 | [2] 0.029 | [3] 0.041 | [4] 0.011 | [5] -0.009

MRPS11 (UniProt P82912)
inactive: [1] -0.027 | [2] 0.059 | [3] 0.014 | [4] -0.085 | [5] 0.054

MRPL46 (UniProt Q9H2W6)
inactive: [1] 0.022 | [2] -0.012 | [3] 0.021 | [4] 0.026 | [5] 0.199
